Laboratory results as given in patent publication US6916818B2, “Azaindoles having serotonin receptor affinity” (NPS Allelix Corp., priority 1999, dated 2005).
Some of these results come from one statement about several compounds together. For at least one compound, name, drawing or mass did not settle the structure.

The chains behind the UniProt entries cited, without tags or fusion partners.
UniProt P50406, whole entry: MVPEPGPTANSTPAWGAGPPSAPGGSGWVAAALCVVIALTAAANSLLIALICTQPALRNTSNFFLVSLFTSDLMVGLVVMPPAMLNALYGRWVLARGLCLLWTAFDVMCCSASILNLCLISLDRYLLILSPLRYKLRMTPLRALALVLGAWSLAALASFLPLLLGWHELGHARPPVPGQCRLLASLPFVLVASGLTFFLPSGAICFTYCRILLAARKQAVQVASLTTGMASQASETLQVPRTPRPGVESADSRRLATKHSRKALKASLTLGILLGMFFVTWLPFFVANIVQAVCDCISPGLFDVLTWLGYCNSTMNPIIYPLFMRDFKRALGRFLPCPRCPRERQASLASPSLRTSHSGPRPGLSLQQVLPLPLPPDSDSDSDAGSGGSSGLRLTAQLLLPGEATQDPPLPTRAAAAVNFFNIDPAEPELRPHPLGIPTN

Molecular target: T1, 5-HT6 receptor (Homo sapiens, UniProt P50406)
T1 construct: expressed in transfected cells
Assay: Binding affinity for the 5-HT6 receptor (3H-LSD displacement, membranes of recombinant cells)
Details: 100 nM test compound; 3H-LSD 2 nM; 60 min, 37° C.

For `O=S(=O)(c1cccc2ccccc12)n1cc(C2CCN3CCCCC3C2)c2cnccc21` (single isomer, unassigned; more polar) [1-naphthalenesulfonyl-3-(octahydro-quinolizine)-5-azaindole], which “percent inhibition of radioligand binding for the 5-HT6 receptor” value is on record?
The value was “greater than 80%”.
